# PubChem BioAssay AID1224830 – NIAID – 2016
# Screen: 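Host factors that control LPS-induced TNF expression in human macrophages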 (primary screen)
# System: human THP-1 monocytic leukaemia cells, TNF dual-luciferase reporter clone, PMA-differentiated to macrophage-like cells
# Reagents: siRNA pool against human genes, 50 nM
# Duration: LPS for 4 h, given about 3 days after siRNA transfection
# Conditions: bacterial LPS (TLR4 ligand), 10 ng/ml
# Read-out: 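Ratio of firefly to renilla light, scaled to the plate median and expressed as a robust z-score per replicate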
# Direction: TNF reporter robust z-score: higher = stronger TNF reporter response to LPS
# Rule for the call: 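a well is active when its z-score exceeds 2.8 or falls below -1.5; control wells carry no call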
# This is an unselected part of about 18,000 reagents tested. About 2,900 of all reagents (16%) count as active. 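Calls are made per well; low scores hint the gene aids the LPS response, high scores that it dampens it.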 Repeated entries: four replicate wells of each siRNA pool.
target,TNF reporter robust z-score,Outcome
NGFR (nerve growth factor receptor),0.55,inactive
NGFR (nerve growth factor receptor),-1.19,inactive
NGFR (nerve growth factor receptor),-1.11,inactive
NGFR (nerve growth factor receptor),-1.16,inactive
GDNF (glial cell derived neurotrophic factor),0.64,inactive
GDNF (glial cell derived neurotrophic factor),0.76,inactive
GDNF (glial cell derived neurotrophic factor),2.92,active
GDNF (glial cell derived neurotrophic factor),0.91,inactive
TUBA1C (tubulin alpha 1c),-0.54,inactive
TUBA1C (tubulin alpha 1c),-0.83,inactive
TUBA1C (tubulin alpha 1c),-1.09,inactive
TUBA1C (tubulin alpha 1c),-0.4,inactive
ACKR5 (atypical chemokine receptor 5),0.62,inactive
ACKR5 (atypical chemokine receptor 5),2.79,inactive
ACKR5 (atypical chemokine receptor 5),2.34,inactive
ACKR5 (atypical chemokine receptor 5),0.34,inactive
TMEM106A (transmembrane protein 106A),2.58,inactive
TMEM106A (transmembrane protein 106A),2.24,inactive
TMEM106A (transmembrane protein 106A),2.71,inactive
TMEM106A (transmembrane protein 106A),3.59,active
PNLDC1 (PARN like ribonuclease domain containing exonuclease 1),0.4,inactive
PNLDC1 (PARN like ribonuclease domain containing exonuclease 1),0.89,inactive
PNLDC1 (PARN like ribonuclease domain containing exonuclease 1),0.52,inactive
PNLDC1 (PARN like ribonuclease domain containing exonuclease 1),0.84,inactive
RNF38 (ring finger protein 38),1.63,inactive
RNF38 (ring finger protein 38),3.51,active
RNF38 (ring finger protein 38),5.37,active
RNF38 (ring finger protein 38),3.42,active
CD14 (CD14 molecule),-1.54,active
CD14 (CD14 molecule),-1.32,inactive
CD14 (CD14 molecule),-1.73,active
CD14 (CD14 molecule),-1.52,active
PPP2R5B (protein phosphatase 2 regulatory subunit B'beta),-0.45,inactive
PPP2R5B (protein phosphatase 2 regulatory subunit B'beta),-0.71,inactive
PPP2R5B (protein phosphatase 2 regulatory subunit B'beta),0.35,inactive
PPP2R5B (protein phosphatase 2 regulatory subunit B'beta),-0.23,inactive
PCDHB8 (protocadherin beta 8),-1.25,inactive
PCDHB8 (protocadherin beta 8),-0.74,inactive
PCDHB8 (protocadherin beta 8),-0.8,inactive
PCDHB8 (protocadherin beta 8),-0.96,inactive
DGUOK (deoxyguanosine kinase),-0.31,inactive
DGUOK (deoxyguanosine kinase),-0.51,inactive
DGUOK (deoxyguanosine kinase),-0.54,inactive
DGUOK (deoxyguanosine kinase),0.45,inactive
IL1RAPL1 (interleukin 1 receptor accessory protein like 1),1.99,inactive
IL1RAPL1 (interleukin 1 receptor accessory protein like 1),1.57,inactive
IL1RAPL1 (interleukin 1 receptor accessory protein like 1),0.56,inactive
IL1RAPL1 (interleukin 1 receptor accessory protein like 1),-0.68,inactive
FGF12 (fibroblast growth factor 12),-0.52,inactive
FGF12 (fibroblast growth factor 12),-0.75,inactive
FGF12 (fibroblast growth factor 12),-1.43,inactive
FGF12 (fibroblast growth factor 12),-0.68,inactive
FHOD1 (formin homology 2 domain containing 1),1.6,inactive
FHOD1 (formin homology 2 domain containing 1),2.73,inactive
FHOD1 (formin homology 2 domain containing 1),1.62,inactive
FHOD1 (formin homology 2 domain containing 1),1.97,inactive
"DDX12P (DEAD/H-box helicase 12, pseudogene)",2.61,inactive
"DDX12P (DEAD/H-box helicase 12, pseudogene)",-0.44,inactive
"DDX12P (DEAD/H-box helicase 12, pseudogene)",-0.89,inactive
"DDX12P (DEAD/H-box helicase 12, pseudogene)",-0.23,inactive
ARHGAP33 (Rho GTPase activating protein 33),-0.89,inactive
ARHGAP33 (Rho GTPase activating protein 33),-0.02,inactive
ARHGAP33 (Rho GTPase activating protein 33),-0.53,inactive
ARHGAP33 (Rho GTPase activating protein 33),-0.4,inactive
PTPRO (protein tyrosine phosphatase receptor type O),0.1,inactive
PTPRO (protein tyrosine phosphatase receptor type O),-0.18,inactive
PTPRO (protein tyrosine phosphatase receptor type O),1.29,inactive
PTPRO (protein tyrosine phosphatase receptor type O),-0.26,inactive
PAX7 (paired box 7),-0.18,inactive
PAX7 (paired box 7),0,inactive
PAX7 (paired box 7),-0.22,inactive
PAX7 (paired box 7),-0.09,inactive
ZNF99 (zinc finger protein 99),-0.56,inactive
ZNF99 (zinc finger protein 99),-0.34,inactive
ZNF99 (zinc finger protein 99),-0.66,inactive
ZNF99 (zinc finger protein 99),-0.2,inactive
OR52I2 (olfactory receptor family 52 subfamily I member 2),0.71,inactive
OR52I2 (olfactory receptor family 52 subfamily I member 2),1.25,inactive
OR52I2 (olfactory receptor family 52 subfamily I member 2),2,inactive
OR52I2 (olfactory receptor family 52 subfamily I member 2),-0.04,inactive
FAM219B (family with sequence similarity 219 member B),-0.85,inactive
FAM219B (family with sequence similarity 219 member B),-0.09,inactive
FAM219B (family with sequence similarity 219 member B),-1.16,inactive
FAM219B (family with sequence similarity 219 member B),0.75,inactive
TSPAN13 (tetraspanin 13),0.59,inactive
TSPAN13 (tetraspanin 13),-0.09,inactive
TSPAN13 (tetraspanin 13),0.84,inactive
TSPAN13 (tetraspanin 13),-0.69,inactive
SHANK2 (SH3 and multiple ankyrin repeat domains 2),-0.19,inactive
SHANK2 (SH3 and multiple ankyrin repeat domains 2),0.35,inactive
SHANK2 (SH3 and multiple ankyrin repeat domains 2),0.56,inactive
SHANK2 (SH3 and multiple ankyrin repeat domains 2),1.21,inactive
PEG3 (paternally expressed 3),0.52,inactive
PEG3 (paternally expressed 3),1.58,inactive
PEG3 (paternally expressed 3),1.55,inactive
PEG3 (paternally expressed 3),0.37,inactive
WDR91 (WD repeat domain 91),-1.64,active
WDR91 (WD repeat domain 91),-1.15,inactive
WDR91 (WD repeat domain 91),-1.18,inactive
WDR91 (WD repeat domain 91),-1.28,inactive
RHAG (Rh associated glycoprotein),0.3,inactive
RHAG (Rh associated glycoprotein),0.84,inactive
RHAG (Rh associated glycoprotein),0.66,inactive
CREB3 (cAMP responsive element binding protein 3),-0.92,inactive
CREB3 (cAMP responsive element binding protein 3),-0.44,inactive
CREB3 (cAMP responsive element binding protein 3),-0.76,inactive
CREB3 (cAMP responsive element binding protein 3),-0.73,inactive
DLL3 (delta like canonical Notch ligand 3),0.8,inactive
DLL3 (delta like canonical Notch ligand 3),1.14,inactive
DLL3 (delta like canonical Notch ligand 3),1.02,inactive
DLL3 (delta like canonical Notch ligand 3),1.86,inactive
"LMAN2L (lectin, mannose binding 2 like)",0.27,inactive
"LMAN2L (lectin, mannose binding 2 like)",2.56,inactive
"LMAN2L (lectin, mannose binding 2 like)",0.78,inactive
"LMAN2L (lectin, mannose binding 2 like)",0.46,inactive
H4C8 (H4 clustered histone 8),1.72,inactive
H4C8 (H4 clustered histone 8),0.12,inactive
H4C8 (H4 clustered histone 8),1.16,inactive
H4C8 (H4 clustered histone 8),1,inactive
ACADL (acyl-CoA dehydrogenase long chain),0.6,inactive
ACADL (acyl-CoA dehydrogenase long chain),0.82,inactive
ACADL (acyl-CoA dehydrogenase long chain),0.72,inactive
ACADL (acyl-CoA dehydrogenase long chain),1.02,inactive
SNX2 (sorting nexin 2),-0.17,inactive
SNX2 (sorting nexin 2),0.28,inactive
SNX2 (sorting nexin 2),1.56,inactive
SNX2 (sorting nexin 2),1.29,inactive
HMX2 (H6 family homeobox 2),-0.17,inactive
HMX2 (H6 family homeobox 2),0.91,inactive
HMX2 (H6 family homeobox 2),0.09,inactive
HMX2 (H6 family homeobox 2),0.28,inactive
RPN2 (ribophorin II),0.71,inactive
RPN2 (ribophorin II),-0.26,inactive
RPN2 (ribophorin II),-0.29,inactive
RPN2 (ribophorin II),-1.91,active
WNT1 (Wnt family member 1),3.2,active
WNT1 (Wnt family member 1),1.09,inactive
WNT1 (Wnt family member 1),-0.04,inactive
WNT1 (Wnt family member 1),0.37,inactive
KCNG1,1.61,inactive
KCNG1,1.06,inactive
KCNG1,1.31,inactive
KCNG1,1.98,inactive

Quoted from the listing for reference:
target,TNF reporter robust z-score,Outcome
IL1RAPL1 (interleukin 1 receptor accessory protein like 1),0.56,inactive
IL1RAPL1 (interleukin 1 receptor accessory protein like 1),-0.68,inactive
FGF12 (fibroblast growth factor 12),-0.52,inactive
FGF12 (fibroblast growth factor 12),-0.75,inactive
FGF12 (fibroblast growth factor 12),-1.43,inactive
FGF12 (fibroblast growth factor 12),-0.68,inactive
FHOD1 (formin homology 2 domain containing 1),1.6,inactive
FHOD1 (formin homology 2 domain containing 1),2.73,inactive
FHOD1 (formin homology 2 domain containing 1),1.62,inactive
FHOD1 (formin homology 2 domain containing 1),1.97,inactive
"DDX12P (DEAD/H-box helicase 12, pseudogene)",2.61,inactive
"DDX12P (DEAD/H-box helicase 12, pseudogene)",-0.44,inactive
"DDX12P (DEAD/H-box helicase 12, pseudogene)",-0.89,inactive
"DDX12P (DEAD/H-box helicase 12, pseudogene)",-0.23,inactive
